The other results are listed elsewhere or left out. Repeats are few or missing, and single values can be far off.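 Cells were imaged in 1,536-well plates, and nuclei stained with an antibody against cleaved PARP were counted against all DNA-stained nuclei to give the apoptosis fraction. Screening doses were chosen to leave most cells alive, and resting and induced cleaved-PARP levels differ strongly between cell lines.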
Legend:
Assay in all cases: cleaved PARP positive nuclei fraction relative to DMSO control; melanoma cells; higher = more apoptosis
Conditions in all cases: library dose: low library concentration; 72 h
[1] = tested on: MeWo
[2] = tested on: RPMI7951
[3] = tested on: RVH-421
[4] = tested on: SkMel28
[5] = tested on: SkMel2
[6] = tested on: SkMel30
[7] = tested on: SkMel5
[8] = tested on: UACC257
[9] = tested on: UACC62
[10] = tested on: MZ2-MEL

SMILES	cleaved PARP positive nuclei fraction [1]	cleaved PARP positive nuclei fraction [2]	cleaved PARP positive nuclei fraction [3]	cleaved PARP positive nuclei fraction [4]	cleaved PARP positive nuclei fraction [5]	cleaved PARP positive nuclei fraction [6]	cleaved PARP positive nuclei fraction [7]	cleaved PARP positive nuclei fraction [8]	cleaved PARP positive nuclei fraction [9]	cleaved PARP positive nuclei fraction [10]
NC(=O)c1ccc(N(C(N)=O)c2c(F)cccc2F)nc1-c1ccc(F)cc1F + Oc1nc(-c2ccc(C(F)(F)F)cc2)nc2c1CSCC2 [XAV939] (first compound 0.4 µM, partner dose 2 µM)	81.9%	38.2%	82%	239%	111%	207%	80.6%	161%	121%	–
Cn1sc(=O)n(Cc2ccccc2)c1=O + C=C(c1ccc(C(=O)O)cc1)c1cc2c(cc1C)C(C)(C)CCC2(C)C [Bexarotene] (first compound 0.4 µM, partner dose 2 µM)	145%	145%	169%	89.6%	91.1%	84.7%	–	–	66.6%	–
CCCCCCCCc1ccc(CCC(N)(CO)CO)cc1 [fingolimod] + Cn1c(Nc2ccc(C(F)(F)F)cc2)nc2cc(Oc3ccnc(-c4ncc(C(F)(F)F)[nH]4)c3)ccc21 [CHIR265] (first compound 2 µM, partner dose 0.08 µM)	248%	353%	305%	68.8%	–	112%	–	–	739%	65%
CCN(CC)CCNC(=O)c1c(C)[nH]c(/C=C2\C(=O)Nc3ccc(F)cc32)c1C [sunitinib] + O=C(O)C(=O)Nc1sc2c(c1C(=O)O)CCNC2 [TCS401] (first compound 0.4 µM, partner dose 1.66667 µM)	94.3%	70%	125%	82.2%	152%	35.3%	71.3%	44.5%	113%	–
CCCCCCCCc1ccc(CCC(N)(CO)CO)cc1 [fingolimod] + O=C(CCCCCCC(=O)Nc1ccccc1)NO [vorinostat] (first compound 2 µM, partner dose 0.08 µM)	46.4%	243%	41.5%	71.2%	48.5%	70.6%	154%	68.3%	36.3%	–
CS(=O)(=O)c1ccc(C(=O)Nc2ccc(Cl)c(-c3ccccn3)c2)c(Cl)c1 [vismodegib] + CO[C@H]1C[C@@H]2CC[C@@H](C)[C@@](O)(O2)C(=O)C(=O)N2CCCC[C@H]2C(=O)O[C@H]([C@H](C)C[C@@H]2CC[C@@H](OCCO)[C@H](OC)C2)CC(=O)[C@H](C)/C=C(\C)[C@@H](O)[C@@H](OC)C(=O)[C@H](C)C[C@H](C)/C=C/C=C/C=C/1C [everolimus] (first compound 1 µM, partner dose 0.02 µM)	63.7%	90.1%	156%	350%	–	120%	–	–	183%	91.7%
CCCCCCCCc1ccc(CCC(N)(CO)CO)cc1 [fingolimod] + Cc1ccc(NC(=O)c2cccc(N(C)C)c2)cc1NC(=O)c1ccc(O)cc1 [ZM336372] (first compound 2 µM, partner dose 2 µM)	53.3%	123%	45.4%	69.4%	59.8%	74%	78.9%	127%	262%	–
C[C@@H](N)c1ccc(C(=O)Nc2ccnc3[nH]ccc23)cc1 + CO[C@H]1C[C@@H]2CC[C@@H](C)[C@@](O)(O2)C(=O)C(=O)N2CCCC[C@H]2C(=O)O[C@H]([C@H](C)C[C@@H]2CC[C@@H](OCCO)[C@H](OC)C2)CC(=O)[C@H](C)/C=C(\C)[C@@H](O)[C@@H](OC)C(=O)[C@H](C)C[C@H](C)/C=C/C=C/C=C/1C [everolimus] (first compound 0.4 µM, partner dose 0.02 µM)	155%	95.7%	208%	1090%	–	51.5%	–	–	648%	132%
NC1(c2ccc(-c3nc4ccn5c(=O)[nH]nc5c4cc3-c3ccccc3)cc2)CCC1 + CO[C@@H]1[C@H](N(C)C(=O)c2ccccc2)C[C@H]2O[C@]1(C)n1c3ccccc3c3c4c(c5c6ccccc6n2c5c31)C(=O)NC4 [Midostaurin] (first compound 0.4 µM, partner dose 0.08 µM)	94.3%	211%	77%	82.7%	127%	182%	74.7%	77.5%	560%	–
NC(=O)c1ccc(N(C(N)=O)c2c(F)cccc2F)nc1-c1ccc(F)cc1F + CC(=O)O[C@@]12CO[C@@H]1C[C@H](O)[C@@]1(C)C(=O)[C@H](O)C3=C(C)[C@@H](OC(=O)[C@H](O)[C@@H](NC(=O)OC(C)(C)C)c4ccccc4)C[C@@](O)([C@@H](OC(=O)c4ccccc4)[C@H]21)C3(C)C [Docetaxel] (first compound 0.4 µM, partner dose 0.0001 µM)	445%	842%	121%	276%	–	278%	–	–	663%	218%
NC1(c2ccc(-c3nc4ccn5c(=O)[nH]nc5c4cc3-c3ccccc3)cc2)CCC1 + Cc1cc(N2CCOCC2)cc2[nH]c(-c3c(NC[C@@H](O)c4cccc(Cl)c4)cc[nH]c3=O)nc12 [BMS536924] (first compound 0.4 µM, partner dose 0.2 µM)	173%	47%	50.5%	83.5%	93.4%	217%	132%	42.6%	198%	–
Cn1cnc2c(F)c(Nc3ccc(Br)cc3Cl)c(C(=O)NOCCO)cc21 [selumetinib] + Cc1cc([N+](=O)[O-])ccc1NS(=O)(=O)c1cc(Cl)ccc1Cl [FH535] (first compound 0.015 µM, partner dose 1 µM)	128%	63.7%	103%	127%	216%	166%	64%	39.3%	299%	–
CCCCCCCCc1ccc(CCC(N)(CO)CO)cc1 [fingolimod] + CC(C)(C)c1cnc(CSc2cnc(NC(=O)C3CCNCC3)s2)o1 [SNS-032] (first compound 2 µM, partner dose 0.01 µM)	102%	97.7%	325%	201%	148%	66.4%	77.6%	49%	342%	–
Cn1cnc2c(F)c(Nc3ccc(Br)cc3Cl)c(C(=O)NOCCO)cc21 [selumetinib] + COc1cc(N2CCC(N3CCN(C)CC3)CC2)ccc1Nc1ncc(Cl)c(Nc2ccccc2S(=O)(=O)C(C)C)n1 [NVP-TAE684] (first compound 0.015 µM, partner dose 0.08 µM)	74.6%	58.1%	61.8%	367%	99.5%	65.1%	78.9%	178%	282%	–
CN(c1ncccc1CNc1nc(Nc2ccc3c(c2)CC(=O)N3)ncc1C(F)(F)F)S(C)(=O)=O + Clc1ccc(Nc2nnc(Cc3ccncc3)c3ccccc23)cc1 [vatalanib] (first compound 0.08 µM, partner dose 2 µM)	161%	80.4%	46.4%	50.4%	–	109%	–	–	79.6%	26.9%
CCCCCCCCc1ccc(CCC(N)(CO)CO)cc1 [fingolimod] + CNC(=O)c1cc(Oc2ccc(NC(=O)Nc3ccc(Cl)c(C(F)(F)F)c3)cc2)ccn1 [sorafenib] (first compound 2 µM, partner dose 0.4 µM)	117%	70.6%	36.7%	42.4%	–	93.8%	–	–	269%	62.8%
COc1ccc(C2=N[C@@H](c3ccc(Cl)cc3)[C@@H](c3ccc(Cl)cc3)N2C(=O)N2CCNC(=O)C2)c(OC(C)C)c1 [Nutlin-3] + CO[C@H]1C[C@@H]2CC[C@@H](C)[C@@](O)(O2)C(=O)C(=O)N2CCCC[C@H]2C(=O)O[C@H]([C@H](C)C[C@@H]2CC[C@@H](OCCO)[C@H](OC)C2)CC(=O)[C@H](C)/C=C(\C)[C@@H](O)[C@@H](OC)C(=O)[C@H](C)C[C@H](C)/C=C/C=C/C=C/1C [everolimus] (first compound 0.1 µM, partner dose 0.02 µM)	82.9%	87.8%	108%	150%	–	72.6%	–	–	390%	25.4%
C[C@]1(O)C[C@@H](c2nc(-c3ccc4ccc(-c5ccccc5)nc4c3)c3c(N)nccn32)C1 + CCCCCCCCc1ccc(CCC(N)(CO)CO)cc1 [fingolimod] (first compound 0.4 µM, partner dose 2 µM)	108%	232%	88.4%	49.2%	–	42.3%	–	–	319%	57.4%
COc1ccc(C2=N[C@@H](c3ccc(Cl)cc3)[C@@H](c3ccc(Cl)cc3)N2C(=O)N2CCNC(=O)C2)c(OC(C)C)c1 [Nutlin-3] + CCCCCCCCCCCC1=C(O)C(=O)C=C(O)C1=O [Embelin] (first compound 0.1 µM, partner dose 1.2 µM)	145%	87.8%	134%	154%	103%	61.1%	106%	172%	87.1%	–
CCCCCCCCc1ccc(CCC(N)(CO)CO)cc1 [fingolimod] + COc1ccc(COc2ccc(Cc3cnc(N)nc3N)cc2OC)cc1 [GW2580] (first compound 2 µM, partner dose 1 µM)	16.7%	87.5%	133%	166%	47.7%	175%	36.6%	165%	79.5%	–
Cn1cnc2c(F)c(Nc3ccc(Br)cc3Cl)c(C(=O)NOCCO)cc21 [selumetinib] + CO[C@H]1C[C@@H]2CC[C@@H](C)[C@@](O)(O2)C(=O)C(=O)N2CCCC[C@H]2C(=O)O[C@H]([C@H](C)C[C@@H]2CC[C@@H](OCCO)[C@H](OC)C2)CC(=O)[C@H](C)/C=C(\C)[C@@H](O)[C@@H](OC)C(=O)[C@H](C)C[C@H](C)/C=C/C=C/C=C/1C [everolimus] (first compound 0.015 µM, partner dose 0.02 µM)	302%	139%	134%	470%	–	227%	–	–	1470%	173%

Single records (already shown). Order of values: cleaved PARP positive nuclei fraction [1]	cleaved PARP positive nuclei fraction [2]	cleaved PARP positive nuclei fraction [3]	cleaved PARP positive nuclei fraction [4]	cleaved PARP positive nuclei fraction [5]	cleaved PARP positive nuclei fraction [6]	cleaved PARP positive nuclei fraction [7]	cleaved PARP positive nuclei fraction [8]	cleaved PARP positive nuclei fraction [9]	cleaved PARP positive nuclei fraction [10]
CS(=O)(=O)c1ccc(C(=O)Nc2ccc(Cl)c(-c3ccccn3)c2)c(Cl)c1 [vismodegib] + CO[C@H]1C[C@@H]2CC[C@@H](C)[C@@](O)(O2)C(=O)C(=O)N2CCCC[C@H]2C(=O)O[C@H]([C@H](C)C[C@@H]2CC[C@@H](OCCO)[C@H](OC)C2)CC(=O)[C@H](C)/C=C(\C)[C@@H](O)[C@@H](OC)C(=O)[C@H](C)C[C@H](C)/C=C/C=C/C=C/1C [everolimus] (first compound 1 µM, partner dose 0.02 µM) in the list: 63.7%	90.1%	156%	350%	–	120%	–	–	183%	91.7%
COc1ccc(C2=N[C@@H](c3ccc(Cl)cc3)[C@@H](c3ccc(Cl)cc3)N2C(=O)N2CCNC(=O)C2)c(OC(C)C)c1 [Nutlin-3] + CO[C@H]1C[C@@H]2CC[C@@H](C)[C@@](O)(O2)C(=O)C(=O)N2CCCC[C@H]2C(=O)O[C@H]([C@H](C)C[C@@H]2CC[C@@H](OCCO)[C@H](OC)C2)CC(=O)[C@H](C)/C=C(\C)[C@@H](O)[C@@H](OC)C(=O)[C@H](C)C[C@H](C)/C=C/C=C/C=C/1C [everolimus] (first compound 0.1 µM, partner dose 0.02 µM) in the list: 82.9%	87.8%	108%	150%	–	72.6%	–	–	390%	25.4%
